{"sequences": {"note": "Protein sequences, listed by entry. Tags and fused reporters are not part of them. Residues count along the entry.", "UniProt P07237, residues 18-508": "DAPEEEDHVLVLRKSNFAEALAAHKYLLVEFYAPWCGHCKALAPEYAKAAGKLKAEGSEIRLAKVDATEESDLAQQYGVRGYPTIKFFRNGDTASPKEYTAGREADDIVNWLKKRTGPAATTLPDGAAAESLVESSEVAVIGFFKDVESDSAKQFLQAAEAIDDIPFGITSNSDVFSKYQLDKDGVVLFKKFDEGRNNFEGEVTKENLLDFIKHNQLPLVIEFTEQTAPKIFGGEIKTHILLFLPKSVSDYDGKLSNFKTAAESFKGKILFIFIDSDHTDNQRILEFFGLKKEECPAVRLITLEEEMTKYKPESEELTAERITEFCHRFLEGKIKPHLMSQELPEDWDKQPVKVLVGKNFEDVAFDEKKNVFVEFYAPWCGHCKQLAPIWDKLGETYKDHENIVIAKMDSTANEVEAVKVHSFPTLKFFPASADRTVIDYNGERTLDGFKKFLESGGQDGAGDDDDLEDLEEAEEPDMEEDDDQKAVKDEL"}, "source": "paper PMC7039678", "assay_in_all_cases": "co-IP; lysates of transfected HCT116 knockout cells; anti-Flag antibody and protein G-coupled Sepharose beads; washed with 50 mM Tris/Cl pH 8.0, 1% NP-40, 150 mM NaCl, then PBS; blots of endogenous partners after reducing and non-reducing SDS-PAGE", "key": {"[1]": {"target": "T1, 3x Flag-tagged EDEM2 C408A (human) (UniProt Q9BV94)", "T1 sequence": "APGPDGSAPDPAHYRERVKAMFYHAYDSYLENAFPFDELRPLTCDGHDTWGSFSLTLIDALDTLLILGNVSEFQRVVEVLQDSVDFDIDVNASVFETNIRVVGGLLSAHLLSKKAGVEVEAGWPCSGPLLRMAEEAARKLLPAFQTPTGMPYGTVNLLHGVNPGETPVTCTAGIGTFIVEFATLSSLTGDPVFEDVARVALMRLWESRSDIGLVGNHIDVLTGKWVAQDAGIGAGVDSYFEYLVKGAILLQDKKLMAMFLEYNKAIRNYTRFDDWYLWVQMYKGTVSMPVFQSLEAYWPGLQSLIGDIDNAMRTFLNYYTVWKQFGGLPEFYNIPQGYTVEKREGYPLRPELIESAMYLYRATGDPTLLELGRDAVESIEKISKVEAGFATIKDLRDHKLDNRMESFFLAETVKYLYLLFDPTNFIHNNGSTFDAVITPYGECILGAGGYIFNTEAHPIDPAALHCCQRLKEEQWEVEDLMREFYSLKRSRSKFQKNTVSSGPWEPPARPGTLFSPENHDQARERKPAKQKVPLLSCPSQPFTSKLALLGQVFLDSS"}, "[2]": {"target": "T2, 3x Flag-tagged EDEM2 C558A (human) (UniProt Q9BV94)", "T2 sequence": "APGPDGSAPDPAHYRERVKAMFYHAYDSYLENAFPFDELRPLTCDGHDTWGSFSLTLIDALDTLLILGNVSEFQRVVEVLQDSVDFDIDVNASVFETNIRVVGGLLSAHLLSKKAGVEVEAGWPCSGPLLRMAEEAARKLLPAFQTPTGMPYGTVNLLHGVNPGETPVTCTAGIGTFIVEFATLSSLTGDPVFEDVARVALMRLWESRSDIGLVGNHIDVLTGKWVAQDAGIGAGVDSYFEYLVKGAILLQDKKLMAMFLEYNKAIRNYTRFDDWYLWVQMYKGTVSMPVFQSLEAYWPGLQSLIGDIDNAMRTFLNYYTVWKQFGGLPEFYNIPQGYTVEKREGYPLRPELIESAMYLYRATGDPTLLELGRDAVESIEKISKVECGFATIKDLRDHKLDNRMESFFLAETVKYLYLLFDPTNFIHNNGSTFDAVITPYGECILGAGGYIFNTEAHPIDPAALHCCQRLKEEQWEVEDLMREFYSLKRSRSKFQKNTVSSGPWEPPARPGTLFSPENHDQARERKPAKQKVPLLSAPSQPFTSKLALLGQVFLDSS"}, "[3]": {"target": "T3, 3x Flag-tagged EDEM2 C65A (human) (UniProt Q9BV94)", "T3 sequence": "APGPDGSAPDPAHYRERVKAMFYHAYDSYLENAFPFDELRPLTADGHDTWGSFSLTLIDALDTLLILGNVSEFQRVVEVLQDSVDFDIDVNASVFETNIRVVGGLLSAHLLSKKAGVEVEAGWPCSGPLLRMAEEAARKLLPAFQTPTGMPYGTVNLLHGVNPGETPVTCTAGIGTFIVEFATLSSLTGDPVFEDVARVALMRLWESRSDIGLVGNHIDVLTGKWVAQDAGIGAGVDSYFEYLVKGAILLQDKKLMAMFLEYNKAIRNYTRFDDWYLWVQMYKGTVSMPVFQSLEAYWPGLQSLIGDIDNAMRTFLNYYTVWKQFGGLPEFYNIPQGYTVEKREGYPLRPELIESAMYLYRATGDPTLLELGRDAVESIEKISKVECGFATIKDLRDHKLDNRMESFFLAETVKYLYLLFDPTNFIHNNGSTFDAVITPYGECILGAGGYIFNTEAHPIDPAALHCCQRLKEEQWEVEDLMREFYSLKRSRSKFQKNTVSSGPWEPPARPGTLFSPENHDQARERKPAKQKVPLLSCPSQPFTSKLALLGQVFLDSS"}, "[4]": {"target": "T4, 3x Flag-tagged WT EDEM2 (human) (UniProt Q9BV94)", "T4 sequence": "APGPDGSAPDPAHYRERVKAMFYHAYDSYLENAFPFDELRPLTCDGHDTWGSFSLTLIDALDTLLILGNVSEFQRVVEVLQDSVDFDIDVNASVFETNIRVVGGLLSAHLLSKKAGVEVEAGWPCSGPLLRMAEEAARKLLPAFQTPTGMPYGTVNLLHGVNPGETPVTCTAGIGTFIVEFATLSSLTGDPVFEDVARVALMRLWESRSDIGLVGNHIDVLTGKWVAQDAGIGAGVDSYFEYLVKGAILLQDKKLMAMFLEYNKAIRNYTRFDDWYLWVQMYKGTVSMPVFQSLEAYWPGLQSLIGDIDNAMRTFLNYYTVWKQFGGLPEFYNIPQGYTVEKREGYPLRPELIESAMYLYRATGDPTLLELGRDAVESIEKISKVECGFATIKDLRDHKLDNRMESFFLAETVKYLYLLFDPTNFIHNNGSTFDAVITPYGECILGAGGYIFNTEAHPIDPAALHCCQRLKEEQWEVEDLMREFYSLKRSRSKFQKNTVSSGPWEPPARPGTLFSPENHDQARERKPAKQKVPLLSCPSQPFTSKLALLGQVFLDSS"}, "[5]": {"target": "T5, 3x Flag-tagged C692S mutant of TXNDC11 (human) (UniProt Q6PKC3)", "T5 sequence": "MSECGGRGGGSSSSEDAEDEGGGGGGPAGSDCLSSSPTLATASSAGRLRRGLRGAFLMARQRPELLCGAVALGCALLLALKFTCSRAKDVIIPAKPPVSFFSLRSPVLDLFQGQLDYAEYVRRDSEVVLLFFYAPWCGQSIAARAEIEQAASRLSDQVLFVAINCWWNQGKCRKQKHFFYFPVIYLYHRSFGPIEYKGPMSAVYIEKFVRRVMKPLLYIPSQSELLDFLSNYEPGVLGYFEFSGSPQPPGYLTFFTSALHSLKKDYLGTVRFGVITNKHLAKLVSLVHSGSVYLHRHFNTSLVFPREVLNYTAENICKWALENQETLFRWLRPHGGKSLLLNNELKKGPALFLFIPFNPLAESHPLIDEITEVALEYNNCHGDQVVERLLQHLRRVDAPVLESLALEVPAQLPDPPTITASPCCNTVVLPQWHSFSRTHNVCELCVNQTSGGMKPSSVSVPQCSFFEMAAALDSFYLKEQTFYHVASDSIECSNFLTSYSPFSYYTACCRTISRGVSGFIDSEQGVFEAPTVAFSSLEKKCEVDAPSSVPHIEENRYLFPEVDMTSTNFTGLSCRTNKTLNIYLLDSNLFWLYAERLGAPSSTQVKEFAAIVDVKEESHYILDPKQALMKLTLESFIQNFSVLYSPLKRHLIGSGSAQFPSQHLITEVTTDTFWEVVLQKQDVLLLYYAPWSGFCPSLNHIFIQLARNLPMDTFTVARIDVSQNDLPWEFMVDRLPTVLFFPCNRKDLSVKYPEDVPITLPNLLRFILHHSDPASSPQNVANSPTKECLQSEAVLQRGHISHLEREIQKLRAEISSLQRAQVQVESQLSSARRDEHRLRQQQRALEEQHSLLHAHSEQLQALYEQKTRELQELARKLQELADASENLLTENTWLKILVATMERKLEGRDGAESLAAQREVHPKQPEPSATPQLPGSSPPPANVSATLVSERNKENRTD"}, "[6]": {"target": "T6, 3x Flag-tagged TXNDC11 (WT) (human) (UniProt Q6PKC3)", "T6 sequence (chain, N-glycosylated)": "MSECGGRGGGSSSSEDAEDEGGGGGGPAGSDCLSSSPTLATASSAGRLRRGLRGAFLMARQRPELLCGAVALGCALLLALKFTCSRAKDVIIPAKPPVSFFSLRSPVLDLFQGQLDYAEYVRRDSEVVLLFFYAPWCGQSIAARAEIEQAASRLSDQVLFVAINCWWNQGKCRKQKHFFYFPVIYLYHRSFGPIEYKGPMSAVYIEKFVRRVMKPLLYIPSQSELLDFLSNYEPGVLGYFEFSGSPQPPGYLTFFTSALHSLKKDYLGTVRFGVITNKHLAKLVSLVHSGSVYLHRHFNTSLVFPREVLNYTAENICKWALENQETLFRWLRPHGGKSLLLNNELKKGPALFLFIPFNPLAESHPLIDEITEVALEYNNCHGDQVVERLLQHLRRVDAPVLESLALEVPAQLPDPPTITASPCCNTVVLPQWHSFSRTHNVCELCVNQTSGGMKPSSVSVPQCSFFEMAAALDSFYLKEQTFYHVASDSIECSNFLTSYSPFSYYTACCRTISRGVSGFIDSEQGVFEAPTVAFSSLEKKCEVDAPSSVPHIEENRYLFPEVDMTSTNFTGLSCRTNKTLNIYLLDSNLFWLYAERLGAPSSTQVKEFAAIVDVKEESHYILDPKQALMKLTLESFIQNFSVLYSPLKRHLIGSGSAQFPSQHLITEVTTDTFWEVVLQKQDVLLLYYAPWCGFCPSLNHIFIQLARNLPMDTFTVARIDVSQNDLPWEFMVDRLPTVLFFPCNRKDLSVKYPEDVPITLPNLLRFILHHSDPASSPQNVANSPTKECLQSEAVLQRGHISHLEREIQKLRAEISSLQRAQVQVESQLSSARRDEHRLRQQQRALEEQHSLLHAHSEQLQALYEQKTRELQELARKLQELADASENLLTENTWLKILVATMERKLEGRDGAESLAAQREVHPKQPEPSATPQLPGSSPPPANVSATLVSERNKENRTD"}}, "note": "Results are given in words; binding and its absence hold for the method and conditions named. In cells and extracts the contact can be indirect. Some results given as binding are weak or reduced against the parent protein; the word gives no strength. Where a sequence is shown, tags or fusion partners need not be part of it."}
{"molecule": "endogenous PDI (from UniProt P07237 18-508) (enzyme)", "values": [{"measurement": "binding", "setting": "[1]", "result": "binds"}, {"measurement": "binding", "setting": "[2]", "result": "binds"}, {"measurement": "binding", "setting": "[3]", "result": "binds"}, {"measurement": "binding", "setting": "[4]", "result": "binds"}]}
{"molecule": "endogenous EDEM2 (enzyme, UniProt Q9BV94 22-578) APGPDGSAPDPAHYRERVKAMFYHAYDSYLENAFPFDELRPLTCDGHDTWGSFSLTLIDALDTLLILGNVSEFQRVVEVLQDSVDFDIDVNASVFETNIRVVGGLLSAHLLSKKAGVEVEAGWPCSGPLLRMAEEAARKLLPAFQTPTGMPYGTVNLLHGVNPGETPVTCTAGIGTFIVEFATLSSLTGDPVFEDVARVALMRLWESRSDIGLVGNHIDVLTGKWVAQDAGIGAGVDSYFEYLVKGAILLQDKKLMAMFLEYNKAIRNYTRFDDWYLWVQMYKGTVSMPVFQSLEAYWPGLQSLIGDIDNAMRTFLNYYTVWKQFGGLPEFYNIPQGYTVEKREGYPLRPELIESAMYLYRATGDPTLLELGRDAVESIEKISKVECGFATIKDLRDHKLDNRMESFFLAETVKYLYLLFDPTNFIHNNGSTFDAVITPYGECILGAGGYIFNTEAHPIDPAALHCCQRLKEEQWEVEDLMREFYSLKRSRSKFQKNTVSSGPWEPPARPGTLFSPENHDQARERKPAKQKVPLLSCPSQPFTSKLALLGQVFLDSS", "values": [{"measurement": "binding", "setting": "[5]", "result": "no binding"}, {"measurement": "binding", "setting": "[6]", "result": "binds"}]}
